Assay results from PubChem BioAssay AID588499 (NMMLSC, 2011).
The campaign covered roughly 360,000 compounds. About 610 (0.17%) were called active. The shares of active, inactive and inconclusive entries below differ from those in the screen. Rule as the data show it: active = inhibition above about 30%; inconclusive = no clear call, values can overlap the other calls; inactive = below that. Starred links: 1 amine or outer side, 2 acyl side, 3 side chain; linkers in the order of their positions; H or OH if unused. Residues, ends and D or L forms follow the SMILES beside them. *: point of attachment. CO = O=C([*:1])[*:2]; NHPh = c1ccc(N*)cc1

What follows are molecules tested on Botulinum neurotoxin type A light chain protease (Clostridium botulinum A str. ATCC 3502) (assay: blockers of BoNT/A LC substrate cleavage – biochemical, flow cytometry, MLPCN library, primary screen (AID 588499; also: plate controls were buffer without enzyme for full effect and enzyme alone for no effect)). Settings: multiplex microsphere protease substrate cleavage, at 10 µM, hits give high values.

SMILES	inhibition
Cc1ccc(-n2c(SCC(N)=O)nnc2-c2ccc(S(=O)(=O)N3CCCCC3)cc2)c(C)c1	inactive: 1.1%
CCn1c(CCNC(=O)c2cccs2)nnc1SCC(=O)NC1CCCCC1	inconclusive: 3.3%
CC(NC(=O)c1ccc(-c2cc(C(F)(F)F)ccc2Cl)o1)c1ccccc1 (configuration not stated)	inconclusive: 1.6%
COC(=O)c1c(-c2ccccc2)c[nH]c1C	inconclusive: -43.3%
O=C(NCc1ccncc1)c1ccc(Cn2cc(C(F)(F)F)ccc2=O)cc1	inconclusive: 0.4%
Oc1[nH]c2ccccc2c1N=Nc1ccccc1F	inactive: 0.3%
Cc1ccc(C(=O)c2c(NC(=O)c3ccccc3)sc(C)c2C)cc1	inconclusive: -4.5%
O=C(CC(=O)Nc1cccc(F)c1)Nc1cccc(F)c1	inconclusive: -3.7%
CCOC(=O)c1cccc(NC(=O)CSc2nnc(COc3ccccc3)n2CC)c1	inconclusive: 0.4%
O=C(NC(=S)Nc1nc(-c2ccc(Br)cc2)cs1)c1cccnc1	inactive: -1%
Cc1cccc(C(=O)n2c(=S)nc3cc(C)ccn32)c1	inconclusive: 8.5%
N#CCSc1nc2c(c(C3CC=CCC3)c1C#N)CCC2 (configuration not stated)	inconclusive: 3.6%
N#Cc1cccc(S(=O)(=O)NCC(=O)OCC(=O)c2ccc[nH]2)c1	inactive: -0.9%
COc1ccc(Cn2cc([N+](=O)[O-])nc2C)cc1[N+](=O)[O-]	inconclusive: 5.9%
CCC1(CC)SC(N)=NC1=O	inactive: -1.3%
CCOC(=O)C1C(=O)C=C(/C=C/c2ccccc2)CC1c1ccc(Cl)cc1 (configuration not stated)	inconclusive: -0.3%
CSCC[C@H](NC(=O)OC(C)(C)C)C(=O)N/N=C/c1cccc2cccnc12	inconclusive: 5.8%
Cc1cccc2sc(N(CCCN(C)C)C(=O)c3nc4ccccc4s3)nc12	inactive: 0.2%
CC(=NNC(=S)Nc1cccc(Cl)c1)c1ccccn1	inactive: 10.5%
Cc1cc(C)nc(NC(=O)CSc2nc3ccccc3s2)n1	inconclusive: 3.9%
Fc1ccc(N2CCN(Cc3ccc4c(c3)OCO4)CC2)cc1	inconclusive: 1.3%
CCCCCCc1nnc(N)s1	inconclusive: 2.6%
Cc1cc(N2CCN(c3ccccc3)CC2)nc(N)n1	inconclusive: -0.7%

SMILES	inhibition
Cc1ccc(S(=O)(=O)N2CCN(C(=O)C3COc4ccccc4O3)CC2)cc1C (configuration not stated)	inconclusive: 7%
COc1ccc(-c2cc(=O)[nH]c(=S)[nH]2)cc1	inactive: -0.9%
CCC(CC)C(=O)NN(C(=O)c1ccncc1)C1CC(=O)N(c2ccccc2)C1=O (configuration not stated)	inconclusive: -44.9%
CC1CN(C2=NC(=O)/C(=C3/C(=O)N(Cc4ccc(F)cc4)c4ccccc43)S2)CC(C)O1 (configuration not stated)	inconclusive: -2.8%
O=C(NNS(=O)(=O)c1ccc(F)cc1)c1cnn(-c2ccccc2)c1C(F)(F)F	inconclusive: -44.5%
CC(=O)c1c(C)[nH]c(C(=O)CSc2nnc(-c3ccc(Cl)cc3)n2CC2CCCO2)c1C (configuration not stated)	inactive: 0.5%
Cn1c(=O)c2c(nc(N/N=C/c3cccnc3)n2Cc2ccc(F)cc2)n(C)c1=O	inconclusive: -40.5%
CCOc1ccccc1NC(=O)NC1CCN(CC(=O)Nc2ccc3c(c2)OCCO3)CC1	inconclusive: -10.9%
COc1ccc(OCc2cccc(C(=O)Nn3cc([N+](=O)[O-])cn3)c2)cc1	inconclusive: -4.9%
COc1cnc(SCc2ccc(Cl)c(Cl)c2)nc1Cl	inconclusive: 0.5%
CCOc1ccc(-c2cc(C(=O)NCCCN3CCN(CC)CC3)c3ccccc3n2)cc1	inconclusive: -1.9%
Cc1ccc(-n2c3c(c(=O)[nH]c2=S)C(C(F)(F)F)(C(F)(F)F)NC(=O)N3)cc1	inconclusive: 2.2%
Cc1ccc(Cn2nnc(C(=O)Nc3cccc(C)c3C)c2N)cc1	inconclusive: 2.9%
O=C(COC(=O)CCN1C(=O)/C(=C\C=C\c2ccccc2)SC1=S)Nc1cc(F)ccc1F	active: 41.6%
CC(OC(=O)CN1C(=O)C2C3C=CC(C4CC34)C2C1=O)C(=O)c1ccccc1 (configuration not stated)	inconclusive: -4.9%
CCC(C)(C)n1nnnc1C(c1cc2ccc(OC)cc2[nH]c1=O)N1CCN(C2CCCCC2)CC1 (configuration not stated)	inconclusive: -2%
CCOc1cc(NC(=S)Nc2cccc(OC)c2)c(OCC)cc1NC(=O)C(C)C	inconclusive: -1.1%
CSc1ncccc1C(=O)OCC(=O)NC1CC1	inconclusive: -2.1%
O=C(Nc1ccc(-c2csnn2)cc1)C(Cl)(Cl)Cl	inconclusive: 1.2%
COc1cc(C(F)(F)F)c(C(=O)N(C)c2ccc(Cl)cc2)cn1	inconclusive: 6.5%
O=C(NCCN1CCC(n2c(=O)[nH]c3ccccc32)CC1)c1ccc(Cl)cc1Cl	inactive: 0.3%
O=c1cc(/C=C/c2ccccc2)oc2ccccc12	inconclusive: 5.7%
CC(Sc1nc(-c2ccccc2)cc(=O)[nH]1)C(=O)O (configuration not stated)	inactive: -5.2%

SMILES	inhibition
COc1ccc(OC)c(N/C(C)=C/C(=O)c2ccc(C)o2)c1	inconclusive: -0.3%
O=C(CCCn1c(=S)[nH]c2cc3c(cc2c1=O)OCO3)N1CCN(c2ncccn2)CC1	inconclusive: 3.4%
CCOC(=O)CSc1ncc(OC)c(Sc2ccc(Cl)cc2)n1	inconclusive: 2%
COC(=O)CNC(=O)CNC(=O)Nc1ccccc1 ({NHPh-CO}-Gly-Gly-OMe)	inconclusive: 2.4%
N#C/C(=C/c1ccc(N2CCOCC2)c([N+](=O)[O-])c1)C(N)=O	inconclusive: -6.3%
Cc1nc(NC(=O)CN(C)S(=O)(=O)c2ccc(Br)cc2)sc1C	inconclusive: 3.2%
COC(=O)NNC(=O)c1ccccc1C	inconclusive: 1.1%
Cc1ccc(S(=O)c2snnc2C)cc1 (configuration not stated)	inactive: -2.5%
COc1ccc(OC)c(CNC(=O)CCCn2ccc3cc(S(=O)(=O)N4CCCC4)ccc32)c1	inactive: 0.9%
Cc1ccc(S(=O)(=O)c2cc3c(=O)n4cccc(C)c4nc3n(CC3CCCO3)c2=N)cc1C (configuration not stated)	inconclusive: -34.4%
O=C(CN(C(=O)Cn1nnc(-c2ccccc2F)n1)c1cccc2c1CCCC2)NCc1ccccc1	inconclusive: -6.7%
O=C(Nc1ccccc1Cl)N1CCN(c2ccc3nnc(-c4ccc(F)cc4)n3n2)CC1	inconclusive: 6.6%
C/C(=N\NC1=NCCN1)c1ccc(N)c([N+](=O)[O-])c1	inconclusive: -35.7%
COc1ccccc1NS(=O)(=O)c1ccc(NC(C)=O)cc1	inactive: 1.4%
CC#CC[N+](C)(C)CCCCCC	inconclusive: -39%
CCOC(=O)c1sc2nc(-c3ccco3)c3c(c2c1N)CC(C)(C)OC3	active: 32.6%
COc1cc(Cl)ccc1OCc1cc(C(=O)N2C[C@@H]3CCC[C@H]2C3)no1	inactive: 2.8%
CCN1CCN(c2cc(C)nc(-c3ccccc3O)n2)CC1	inactive: 0.2%
CCOC(=O)c1c(C)[nH]c(C(=O)COC(=O)C2CC2)c1C	inconclusive: 3.8%
Cc1cc(Nc2cccc(F)c2)n2c(n1)nc1ccccc12	inactive: 0.6%
CC(Oc1ccc2c(-c3ccccc3)cc(=O)oc2c1)C(=O)N1CCC[C@@H]1C(N)=O (some centres not stated)	inactive: -0.6%
CCCc1cc(C(=O)OC)c(NC(=O)OCC)s1	inconclusive: 13.5%
Cc1ccc(NC(=O)CN(C(=O)N2CCN(C)CC2)S(=O)(=O)c2ccc(C)cc2)cc1	inconclusive: 1.7%

SMILES	inhibition
CCOC(=O)/C=C(C)\C=C\c1c[nH]c2ccccc12	inconclusive: -25.7%
COc1ccc(-c2nc(C#N)c(N3CCC(C(N)=O)CC3)o2)cc1OC	inconclusive: -7.5%
CCC12CC3CC(C1)CC(C(=O)Nc1nn[nH]n1)(C3)C2	inconclusive: 1.5%
CCn1c2ccccc2c2cc(NC(=O)c3ccc(Br)o3)ccc21	active: 76.7%
CC1CN(S(=O)(=O)c2ccc(Cl)c(C(F)(F)F)c2)CC(C)O1 (configuration not stated)	inconclusive: -0.2%
COc1ccc(C(=O)Nc2ccc(S(=O)(=O)N3CCOCC3)cc2)cc1OC	inactive: -0.1%
O=C(Nc1ccc(C#Cc2ccccc2)cc1)C1CC1	inconclusive: -3.9%
Cc1cc2cc(CNC(=S)NCc3ccccc3)ccc2n1C	active: 45.3%
CCCc1ccc(C(O)c2ncc(-c3ccc(C)cc3)[nH]2)cc1 (configuration not stated)	inactive: -0.1%
Cc1cc2cc(CNC(=O)c3ccc(Br)o3)ccc2n1C	active: 62.1%
CCN(CC)Cc1ccccn1	inconclusive: -58.2%
O=C(COc1ccccc1)N1CCN(C(=O)c2ccco2)CC1	inconclusive: 2.7%
Cc1noc(C)c1CSc1nc2ccccc2n1C	inactive: 0.8%
COc1ccc(CN2CCNC(=O)C2CC(=O)N2CCCN(C(C)=O)CC2)c(OC)c1 (configuration not stated)	inactive: 0%
COc1cccc(C(=O)N(CN2CCCC2=O)c2cccc(Cl)c2)c1OC	inactive: -1%
CC(=O)Nc1cc(NC(C)=O)c(N=Nc2ccccc2)cc1C	inconclusive: -48.2%
O=C(O)CCCN1C(=O)/C(=C\c2ccc(-c3nc4ccccc4s3)o2)SC1=S	active: 41.1%
COC(=O)c1ccc(CS(=O)(=O)c2ccccc2C)o1	inconclusive: 0%
CSc1nnc(-c2cccs2)n1C	inactive: -0.6%
CCCCOC(=O)c1ccc(-c2ccc(/C=N/NC(=S)NCC)o2)cc1	inconclusive: 1.3%
COc1ccc(C(=O)NC(=S)NCc2ccco2)cc1	inconclusive: -44.2%
COc1ccc(Cl)cc1NC(=O)C(C)N(C)Cc1cccc(Cl)c1Cl (configuration not stated)	inactive: -0.1%
CCOC(=O)CN1C(=O)C(=O)N(Cc2ccccc2F)C1=O	inactive: -0.4%
